PubChem BioAssay AID1224830, NIAID | 2016
The deposit covers about 18,000 reagents; this is a random part of them. Over the whole deposit, about 2,900 (16%) got an active call. 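Calls are made per well; low scores hint the gene aids the LPS response, high scores that it dampens it.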 Unmarked entries are inactive. Repeated entries: four replicate wells of each siRNA pool.

Screen: 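Host factors that control LPS-induced TNF expression in human macrophages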 (primary screen)
Cells: human THP-1 monocytic leukaemia cells, TNF dual-luciferase reporter clone, PMA-differentiated to macrophage-like cells
Reagents: siRNA pool against human genes, 50 nM
Duration: LPS for 4 h, given about 3 days after siRNA transfection
Conditions: bacterial LPS (TLR4 ligand), 10 ng/ml
Read-out: 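TNF firefly reporter luminescence divided by renilla, normalised to the plate median, then turned into a robust z-score for each replicate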
Scale: TNF reporter robust z-score: higher = stronger TNF reporter response to LPS
Active means: 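Each well counts as active if its z-score is over 2.8 or under -1.5; controls are left without a call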

With knock-down of ASIC4 (acid sensing ion channel subunit family member 4) the results were TNF reporter robust z-score -0.77.
Knock-down of ASIC4 (acid sensing ion channel subunit family member 4) gave: TNF reporter robust z-score 0.32.
With knock-down of ASIC4 (acid sensing ion channel subunit family member 4), the screen gave TNF reporter robust z-score -0.56.
ASIC4 (acid sensing ion channel subunit family member 4) gave TNF reporter robust z-score -0.15.
Against CARMIL2 (capping protein regulator and myosin 1 linker 2), the entry reads TNF reporter robust z-score -0.24.
Depletion of CARMIL2 (capping protein regulator and myosin 1 linker 2) resulted in: TNF reporter robust z-score -0.33.
Against CARMIL2 (capping protein regulator and myosin 1 linker 2) the deposit lists TNF reporter robust z-score 0.22.
After knock-down of CARMIL2 (capping protein regulator and myosin 1 linker 2), the screen gave TNF reporter robust z-score 1.82.
With knock-down of CCRL2 (C-C motif chemokine receptor like 2), the record shows TNF reporter robust z-score -0.5.
Silencing of CCRL2 (C-C motif chemokine receptor like 2) resulted in: TNF reporter robust z-score -0.54.
CCRL2 (C-C motif chemokine receptor like 2) scored TNF reporter robust z-score -0.59.
For TRIML1 (tripartite motif family like 1), the entry reads TNF reporter robust z-score -0.34.
TRIML1 (tripartite motif family like 1) scored TNF reporter robust z-score -0.21.
TRIML1 (tripartite motif family like 1) showed TNF reporter robust z-score 1.42.
Knock-down of PROKR2 (prokineticin receptor 2) gave: TNF reporter robust z-score -0.54.
PROKR2 (prokineticin receptor 2) scored TNF reporter robust z-score 0.07.
Against PROKR2 (prokineticin receptor 2) the deposit lists TNF reporter robust z-score 1.39.
PROKR2 (prokineticin receptor 2) showed TNF reporter robust z-score 0.45.
Depletion of ANKHD1 (ankyrin repeat and KH domain containing 1) came out at: TNF reporter robust z-score 1.89.
Against ANKHD1 (ankyrin repeat and KH domain containing 1), the entry reads TNF reporter robust z-score 1.63.
Against ANKHD1 (ankyrin repeat and KH domain containing 1), the values are TNF reporter robust z-score 0.52.
ANKHD1 (ankyrin repeat and KH domain containing 1) scored TNF reporter robust z-score 1.37.
Silencing of TNIK (TRAF2 and NCK interacting kinase) resulted in: TNF reporter robust z-score -0.41.
TNIK (TRAF2 and NCK interacting kinase) scored TNF reporter robust z-score -0.06.
Against TNIK (TRAF2 and NCK interacting kinase), the entry reads TNF reporter robust z-score -0.65.
For TNIK (TRAF2 and NCK interacting kinase), the entry reads TNF reporter robust z-score -0.22.
With knock-down of MLKL (mixed lineage kinase domain like pseudokinase), the record shows TNF reporter robust z-score 2.96 (active).
With knock-down of MLKL (mixed lineage kinase domain like pseudokinase), the screen gave TNF reporter robust z-score 0.65.
Knock-down of MLKL (mixed lineage kinase domain like pseudokinase) gave: TNF reporter robust z-score 0.56.
MLKL (mixed lineage kinase domain like pseudokinase) showed TNF reporter robust z-score -0.23.
After knock-down of RFPL4AL1 (ret finger protein like 4A like 1) the results were TNF reporter robust z-score -0.11.
Depletion of RFPL4AL1 (ret finger protein like 4A like 1) came out at: TNF reporter robust z-score 1.15.
With knock-down of RFPL4AL1 (ret finger protein like 4A like 1) the results were TNF reporter robust z-score -0.85.
Silencing of RFPL4AL1 (ret finger protein like 4A like 1) gave: TNF reporter robust z-score 0.81.
CCNI (cyclin I) scored TNF reporter robust z-score 0.43.
After knock-down of CCNI (cyclin I), the screen gave TNF reporter robust z-score 0.95.
For CCNI (cyclin I), the values are TNF reporter robust z-score 1.57.
After knock-down of CCNI (cyclin I), the screen gave TNF reporter robust z-score 0.9.
Against LINC03040 (long independently transcribed non-coding RNA 3040) the deposit lists TNF reporter robust z-score -0.44.
After knock-down of LINC03040 (long independently transcribed non-coding RNA 3040), the screen gave TNF reporter robust z-score 0.14.
Against LINC03040 (long independently transcribed non-coding RNA 3040) the deposit lists TNF reporter robust z-score -0.26.
For LINC03040 (long independently transcribed non-coding RNA 3040) the deposit lists TNF reporter robust z-score -0.27.
For HELB (DNA helicase B), the values are TNF reporter robust z-score 0.09.
After knock-down of HELB (DNA helicase B), the screen gave TNF reporter robust z-score 0.08.
Against HELB (DNA helicase B), the entry reads TNF reporter robust z-score -0.91.
After knock-down of HELB (DNA helicase B), the record shows TNF reporter robust z-score 1.
After knock-down of SNAPIN (SNAP associated protein), the screen gave TNF reporter robust z-score -1.88 (active).
Silencing of SNAPIN (SNAP associated protein) resulted in: TNF reporter robust z-score -1.45.
After knock-down of SNAPIN (SNAP associated protein), the screen gave TNF reporter robust z-score -1.85 (active).
With knock-down of SNAPIN (SNAP associated protein), the screen gave TNF reporter robust z-score -1.77 (active).
After knock-down of EPCAM (epithelial cell adhesion molecule) the results were TNF reporter robust z-score 0.33.
Knock-down of EPCAM (epithelial cell adhesion molecule) gave: TNF reporter robust z-score 1.58.
EPCAM (epithelial cell adhesion molecule) scored TNF reporter robust z-score 0.67.
EPCAM (epithelial cell adhesion molecule) showed TNF reporter robust z-score 0.03.
Against MPZL3 (myelin protein zero like 3), the entry reads TNF reporter robust z-score 1.92.
MPZL3 (myelin protein zero like 3) showed TNF reporter robust z-score 1.95.
Depletion of MPZL3 (myelin protein zero like 3) resulted in: TNF reporter robust z-score -0.19.
MPZL3 (myelin protein zero like 3) scored TNF reporter robust z-score 0.18.
C1QTNF3 (C1q and TNF related 3) scored TNF reporter robust z-score -0.89.
Silencing of C1QTNF3 (C1q and TNF related 3) resulted in: TNF reporter robust z-score -0.22.
C1QTNF3 (C1q and TNF related 3) scored TNF reporter robust z-score -1.44.
Depletion of C1QTNF3 (C1q and TNF related 3) resulted in: TNF reporter robust z-score -1.26.
